Assay: Microbial limits within ICH stability study
[1] = Initial, criterion absent in 1 g

OC[C@H]1O[C@@H](S[C@@H]2O[C@H](CO)[C@H](O)[C@H](n3cc(-c4cccc(F)c4)nn3)[C@H]2O)[C@H](O)[C@@H](n2cc(-c3cccc(F)c3)nn2)[C@H]1O [Form 1, 3,3′-Dideoxy-3,3′-bis-[4-(3-fluorophenyl)-1H-1,2,3-triazol-1-yl]-1,1′-sulfanediyl-di-β-D-galactopyranoside]
absent/g: Microbial Limits P. aeruginosa (6 Months @ 40° C./75 RH) | Microbial Limits S. aureus (6 Months @ 40° C./75 RH) | Microbial Limits P. aeruginosa (12 Months 25° C./60 RH) | Microbial Limits S. aureus (12 Months 25° C./60 RH) | Microbial Limits P. aeruginosa [1] | Microbial Limits S. aureus [1]

— patent US10307403B2, “Polymorphic forms and process” (GALECTO BIOTECH AB, priority 2015, dated 2019)
